The target of test [1] is FLAG-tagged full-length KDM6A (wild type) (UniProt O15550). As to the kind of experiment: co-IP; lysates of HEK293T cells 48 h after transfection with FLAG-KDM6A or FLAG-E895* KDM6A (untransfected cells as control); lysis buffer 50 mM Tris-HCl pH 7.4, 150 mM NaCl, 1 mM EDTA, 1% Triton X-100; bound overnight at 4 °C to anti-FLAG affinity gel, washed three times with TBS; Western blot for KDM6A, HES1 and TLE1/2/3/4. A general note: In western blotting, separated proteins are transferred to a membrane and probed.

The chains behind the UniProt entries cited, without tags or fusion partners. Where a name states a change or a piece, a line headed by the entry shows the natural chain unless it says otherwise. A line that says so, or that is headed by a name, gives the form on record, which may keep a tag or linker. Residues count along the entry.
UniProt O15550: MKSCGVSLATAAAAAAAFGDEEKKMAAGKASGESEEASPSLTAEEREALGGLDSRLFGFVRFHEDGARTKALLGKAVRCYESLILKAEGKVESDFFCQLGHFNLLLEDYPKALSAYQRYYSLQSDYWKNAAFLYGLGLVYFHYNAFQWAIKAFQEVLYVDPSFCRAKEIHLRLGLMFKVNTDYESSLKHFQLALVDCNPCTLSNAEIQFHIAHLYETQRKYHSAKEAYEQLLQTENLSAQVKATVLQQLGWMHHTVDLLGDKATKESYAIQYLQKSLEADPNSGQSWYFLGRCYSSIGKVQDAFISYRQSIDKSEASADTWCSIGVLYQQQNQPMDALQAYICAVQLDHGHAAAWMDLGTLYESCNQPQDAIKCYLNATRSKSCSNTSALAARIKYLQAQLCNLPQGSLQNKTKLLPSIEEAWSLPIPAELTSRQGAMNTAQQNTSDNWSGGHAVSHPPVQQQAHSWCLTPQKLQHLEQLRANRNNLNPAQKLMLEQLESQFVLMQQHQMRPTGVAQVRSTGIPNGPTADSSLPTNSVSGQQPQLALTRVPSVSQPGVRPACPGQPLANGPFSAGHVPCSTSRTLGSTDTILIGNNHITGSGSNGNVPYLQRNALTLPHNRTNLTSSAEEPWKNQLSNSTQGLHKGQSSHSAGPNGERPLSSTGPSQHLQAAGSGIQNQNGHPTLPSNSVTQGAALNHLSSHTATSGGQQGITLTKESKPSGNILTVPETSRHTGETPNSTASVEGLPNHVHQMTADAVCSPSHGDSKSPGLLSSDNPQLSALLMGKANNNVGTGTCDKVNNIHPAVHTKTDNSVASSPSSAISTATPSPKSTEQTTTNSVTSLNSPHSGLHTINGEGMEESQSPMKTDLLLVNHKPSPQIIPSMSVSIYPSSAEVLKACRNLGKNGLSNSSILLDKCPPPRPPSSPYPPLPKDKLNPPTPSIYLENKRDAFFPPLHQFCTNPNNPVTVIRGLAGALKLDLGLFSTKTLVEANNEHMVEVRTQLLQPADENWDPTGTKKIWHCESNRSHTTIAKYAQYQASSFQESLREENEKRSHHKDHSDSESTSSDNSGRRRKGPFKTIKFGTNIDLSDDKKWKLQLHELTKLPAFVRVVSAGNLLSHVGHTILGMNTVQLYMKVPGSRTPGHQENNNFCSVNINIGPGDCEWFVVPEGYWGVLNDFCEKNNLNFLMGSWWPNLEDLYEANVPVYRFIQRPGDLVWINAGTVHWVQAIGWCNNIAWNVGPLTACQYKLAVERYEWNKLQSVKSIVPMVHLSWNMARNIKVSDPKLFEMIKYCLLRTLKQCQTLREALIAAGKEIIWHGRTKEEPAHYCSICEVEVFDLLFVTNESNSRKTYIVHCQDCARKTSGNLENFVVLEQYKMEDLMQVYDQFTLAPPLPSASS
FLAG-tagged truncated KDM6A, E895* mutant (as in the T24 cell line): residues 1-894 of O15550

The target of test [2] is FLAG-tagged truncated KDM6A, E895* mutant (as in the T24 cell line) (UniProt O15550). The description is as above.

Results are given in words; binding and its absence hold for the method and conditions named. Binding seen in cells or lysates may run through a third protein. Some entries that bind do so weakly or less than the wild type.

B1: HES1 (protein, UniProt Q14469 1-280)
chain: MPADIMEKNSSSPVAATPASVNTTPDKPKTASEHRKSSKPIMEKRRRARINESLSQLKTLILDALKKDSSRHSKLEKADILEMTVKHLRNLQRAQMTAALSTDPSVLGKYRAGFSECMNEVTRFLSTCEGVNTEVRTRLLGHLANCMTQINAMTYPGQPHPALQAPPPPPPGPGGPQHAPFAPPPPLVPIPGGAAPPPGGAPCKLGSQAGEAAKVFGGFQVVPAPDGQFAFLIPNGAFAHSGPVIPVYTSNSGTSVGPNAVSPSSGPSLTADSMWRPWRN
Take B1: the binding result in test [1] and in test [2] was “binds” in each case.

Values taken from paper PMC10047809.
